Data: the supplement of paper PMC9254222
Whole data set: some 1,100 compounds, median “Renilla luciferase signal (cell health) relative to plate median” near 0.97, cut for the highest 2% near 1.6. The entries are a selection whose mix differs from that of the whole data set.

Test system: HEK293T (UBE3A T485A transfected, BAR Wnt reporter)
Assay: Renilla luciferase signal (cell health) relative to plate median (fold (linear ratio)); higher = higher Renilla signal
Settings: 24 h
In short: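 Using Fugene 6, HEK293T cells in white 384-well plates (4500 cells/well; DMEM, 10% FBS, 37°C, 5% CO2) were transfected with a BAR firefly luciferase Wnt reporter, TK-Renilla and an expression plasmid. After four hours, robots dosed the chemicals at 0.01–100 uM, and a Dual-Glo luciferase readout followed 24 h later. Per-plate median-centred firefly/Renilla ratios gave Wnt activity, while per-plate median-centred raw Renilla signals gave cell health. Four biological replicates were averaged.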

Row | SMILES | Renilla luciferase signal (concentration: 0.01 uM) | Renilla luciferase signal (concentration: 0.1 uM) | Renilla luciferase signal (concentration: 1 uM) | Renilla luciferase signal (concentration: 10 uM) | Renilla luciferase signal (concentration: 100 uM)
1 | COP(=O)(NC(C)=O)SC (configuration not stated) [Acephate] | 0.777 | 0.825 | 0.95 | 1 | 1.52
2 | COC(=O)N(C(=O)N1CO[C@@]2(C(=O)OC)Cc3cc(Cl)ccc3C2=N1)c1ccc(OC(F)(F)F)cc1 [Indoxacarb] | 1.15 | 0.966 | 0.983 | 0.969 | 0.281
3 | Oc1ccc(Cl)cc1Cc1ccccc1 [Clorophene] | 1.13 | 0.926 | 0.908 | 0.91 | 0.023
4 | CCOP(=S)(OCC)Oc1cc(C)nc(C(C)C)n1 [Diazinon] | 1.18 | 1.29 | 1 | 1.16 | 1.38
5 | CCN(CC)c1nc(C)cc(OP(=S)(OC)OC)n1 [Pirimiphos-methyl] | 1.11 | 1.2 | 1 | 0.992 | 1.53
6 | CN(C)c1ccccc1 [N,N-Dimethylaniline] | – | 1.06 | 0.888 | 1.04 | 0.97
7 | O=S(=O)([O-])C(F)(F)C(F)(F)C(F)(F)C(F)(F)C(F)(F)C(F)(F)C(F)(F)C(F)(F)F.[K+] | – | 0.964 | 0.803 | 0.865 | 0.931
8 | CNC(=O)Oc1cccc2c1OC(C)(C)C2 [Carbofuran] | – | 1.05 | 1.01 | 0.953 | 0.523
9 | CCCCNC(=O)n1c(NC(=O)OC)nc2ccccc21 [Benomyl] | 0.968 | 0.99 | 0.92 | 0.28 | 0.279
10 | OCCOCCO [Diethylene glycol] | – | 0.817 | 0.737 | 0.891 | 1.13
11 | C=C(C)[C@H]1Cc2c(ccc3c2O[C@@H]2COc4cc(OC)c(OC)cc4[C@@H]2C3=O)O1 [Rotenone] | 0.488 | 0.285 | 0.0713 | 0.078 | 0.0265
12 | O=C(N[C@H]1CN2CCC1CC2)c1ccc2c(c1)OCCO2 | – | 1.05 | 1.19 | 1.13 | 1.2
13 | COP(=O)(OC)C(O)C(Cl)(Cl)Cl (configuration not stated) [Trichlorfon] | 1.04 | 1.11 | 1.03 | 1.01 | 0.772
14 | O=C(O)C(Cl)Cl [Dichloroacetic acid] | – | 0.632 | 0.827 | 0.609 | 0.702
15 | CCC(C)(NC(=O)c1cc(Cl)c(C)c(Cl)c1)C(=O)CCl (configuration not stated) [Zoxamide] | 1.25 | 1.05 | 0.961 | 0.117 | 0.0244
16 | Oc1ccccc1Cl [2-Chlorophenol] | – | 1.19 | 1.26 | 1.14 | 1.35

2 compounds drawn at random from the list so far:
Row | SMILES | Renilla luciferase signal (concentration: 0.01 uM) | Renilla luciferase signal (concentration: 0.1 uM) | Renilla luciferase signal (concentration: 1 uM) | Renilla luciferase signal (concentration: 10 uM) | Renilla luciferase signal (concentration: 100 uM)
5 | CCN(CC)c1nc(C)cc(OP(=S)(OC)OC)n1 [Pirimiphos-methyl] | 1.11 | 1.2 | 1 | 0.992 | 1.53
7 | O=S(=O)([O-])C(F)(F)C(F)(F)C(F)(F)C(F)(F)C(F)(F)C(F)(F)C(F)(F)C(F)(F)F.[K+] | – | 0.964 | 0.803 | 0.865 | 0.931

(next part)

Row | SMILES | Renilla luciferase signal (concentration: 0.01 uM) | Renilla luciferase signal (concentration: 0.1 uM) | Renilla luciferase signal (concentration: 1 uM) | Renilla luciferase signal (concentration: 10 uM) | Renilla luciferase signal (concentration: 100 uM)
17 | CCN1CCC2(CC1)COc1cc3c(cc12)N(C(=O)c1ccc(-c2ccc(-c4nnc(C)o4)cc2C)cc1)CC3.Cl | – | 0.932 | 0.666 | 0.149 | 0.0466
18 | CCc1cccc(CC)c1N(COC)C(=O)CCl [Alachlor] | 1.06 | 1.16 | 1.12 | 0.99 | 0.467
19 | CCOC(=O)c1ccccc1C(=O)OCC [Diethyl phthalate] | – | 0.834 | 0.893 | 0.976 | 1.05
20 | CCCN(CCC)c1c([N+](=O)[O-])cc(C(C)C)cc1[N+](=O)[O-] [Isopropalin] | – | 0.928 | 0.823 | 0.977 | 1.35
21 | Clc1ccccc1-c1nnc(-c2ccccc2Cl)nn1 [Clofentezine] | 0.775 | 0.807 | 0.957 | 1.03 | 1.03
22 | CC(C)(c1ccccc1)c1ccc(O)c(C(C)(C)c2ccccc2)c1 [2,4-Bis(1-methyl-1-phenylethyl)phenol] | – | 0.856 | 0.888 | 1.05 | 1.14
23 | COc1cnc(OC)n2nc(NS(=O)(=O)c3c(OCC(F)F)cccc3C(F)(F)F)nc12 [Penoxsulam] | 1.28 | 1.04 | 0.914 | 0.989 | 1.14
24 | COc1ccc(C)cc1N [2-Methoxy-5-methylaniline] | – | 0.939 | 0.867 | 1.03 | 1.25
25 | CC(C)(OO)c1ccccc1 [Cumene hydroperoxide] | – | 1.15 | 1.12 | 1.05 | 1.4
26 | CCCCCOC(=O)c1ccccc1C(=O)OCCCCC [Dipentyl phthalate] | – | 0.95 | 0.861 | 0.91 | 1.18
27 | Oc1ccc(Cl)cc1Cl [2,4-Dichlorophenol] | – | 0.8 | 0.798 | 0.873 | 0.949
28 | C[C@]12CCC(=O)C=C1CC[C@@H]1[C@@H]2CC[C@]2(C)C(=O)CC[C@@H]12 [4-Androstene-3,17-dione] | – | 1.08 | 1.09 | 0.947 | 0.164
29 | CCOP(=S)(OCC)Oc1nc(Cl)c(Cl)cc1Cl [Chlorpyrifos] | – | 0.74 | 0.805 | 0.866 | 0.73
30 | C=CC(=O)OCCCCCC(C)C [Isooctyl acrylate] | – | 0.895 | 0.841 | 0.931 | 1.07
31 | CC(C)C1(C)N=C(c2ncccc2C(=O)O)NC1=O (configuration not stated) [Imazapyr] | 0.822 | 0.714 | 0.895 | 0.959 | 1.42
